## Percent effect of library compounds

Chains of the proteins cited; added tags and fusions are not shown.
UniProt P9WPC5, whole entry: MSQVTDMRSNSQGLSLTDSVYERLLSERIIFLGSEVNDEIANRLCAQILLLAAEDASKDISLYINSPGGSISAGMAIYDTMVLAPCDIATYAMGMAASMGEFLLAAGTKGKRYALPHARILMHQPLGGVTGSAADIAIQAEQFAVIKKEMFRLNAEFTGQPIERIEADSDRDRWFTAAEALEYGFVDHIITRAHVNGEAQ
UniProt P9WPC3, whole entry partner: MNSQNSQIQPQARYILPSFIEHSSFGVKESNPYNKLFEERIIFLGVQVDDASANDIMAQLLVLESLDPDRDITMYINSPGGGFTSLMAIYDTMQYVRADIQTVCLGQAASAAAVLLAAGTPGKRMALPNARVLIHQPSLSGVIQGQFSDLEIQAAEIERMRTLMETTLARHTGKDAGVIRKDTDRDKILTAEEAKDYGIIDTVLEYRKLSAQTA
UniProt P9WFT3, whole entry: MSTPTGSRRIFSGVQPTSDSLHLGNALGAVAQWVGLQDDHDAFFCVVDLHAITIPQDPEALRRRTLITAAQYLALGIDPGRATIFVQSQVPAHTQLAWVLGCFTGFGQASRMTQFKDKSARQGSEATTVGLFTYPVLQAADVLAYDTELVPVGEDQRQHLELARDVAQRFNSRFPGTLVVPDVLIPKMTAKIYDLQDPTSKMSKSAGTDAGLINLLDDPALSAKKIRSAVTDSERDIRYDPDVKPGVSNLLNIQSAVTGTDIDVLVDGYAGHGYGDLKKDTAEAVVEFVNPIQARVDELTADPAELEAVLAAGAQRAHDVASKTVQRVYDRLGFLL
UniProt P9WNZ1, whole entry: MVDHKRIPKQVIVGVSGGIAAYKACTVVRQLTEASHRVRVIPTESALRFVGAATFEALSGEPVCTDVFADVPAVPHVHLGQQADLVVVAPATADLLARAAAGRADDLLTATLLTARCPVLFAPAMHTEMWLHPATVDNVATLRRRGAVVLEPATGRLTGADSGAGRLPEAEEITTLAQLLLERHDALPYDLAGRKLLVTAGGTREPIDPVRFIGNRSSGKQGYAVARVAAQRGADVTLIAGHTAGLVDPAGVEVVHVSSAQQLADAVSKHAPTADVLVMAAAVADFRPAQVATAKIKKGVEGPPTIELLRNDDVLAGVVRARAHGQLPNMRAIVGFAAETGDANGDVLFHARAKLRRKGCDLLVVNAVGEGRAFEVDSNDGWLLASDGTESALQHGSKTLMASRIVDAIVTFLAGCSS

Data taken from ChEMBL document CHEMBL3988442, “University of Dundee, Small-Polar-MMV Screening Library” (2021).

The filed quantity is “Percent Effect” (%). The record does not define 0% and 100%; most values in the screen are far below 50% and negative numbers occur (in some assays of this library far below -100). The compounds are a random part of those screened. A dash means the value is not listed here; it may have been measured.

ClpP1P2: 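Protease assay of ClpP1P2, read by the AMC dye that it sets free. Target: ClpP1P2, Mycobacterium tuberculosis (UniProt P9WPC5 and UniProt P9WPC3). Tested at 50 µM. Direction is inferred from only a few compounds that gave an IC50; most scored high, so higher reads as stronger inhibition. Most other retested compounds had strongly negative values. Size under these conditions: about 69,000 compounds, about 10 of them at 50% or above in at least one test.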
Toxoplasma: 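Assay of Toxoplasma gondii numbers, read through their beta-galactosidase reporter with a colour substrate. Compounds at 10 µM. Higher reads as fewer parasites (inferred from which compounds were picked for retests). About 67,000 compounds were tested under these conditions; 0.38% (about 260) showed 50% or more at least once.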
MtTrpRS: 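Enzyme assay of tryptophanyl-tRNA synthetase; the read-out is not stated. Target: Tryptophan-tRNA ligase, Mycobacterium tuberculosis (UniProt P9WFT3). Concentration: 10 µM. Direction is not recorded; retested compounds ran higher, which suggests that high means inhibition. Of about 65,000 compounds tested this way, about 64 (0.098%) reached 50% or more in at least one test.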
CoaBC: 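Enzyme assay of CoaBC with a phosphate dye (Biomol Green) read at 650 nm. Target: Coenzyme A biosynthesis protein CoaBC, Mycobacterium tuberculosis (UniProt P9WNZ1). Compounds at 30 µM. Higher reads as stronger inhibition, judged from the few compounds that gave an IC50. Most strong results did not repeat in a second test. Size under these conditions: about 67,000 compounds, about 40 of them at 50% or above in at least one test.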

| structure | ClpP1P2 | Toxoplasma | MtTrpRS | CoaBC |
|---|---|---|---|---|
| `CC(C)C(=O)NC1CCN(CCO)CC1` | 15.07% | 13.81% | 2.963% | 0.6061% |
| `CC1CCN(CC(=O)NC(C#N)c2cnn(-c3ccccc3)c2)CC1` (stereo not given) | -15.02% | -8.537% | -0.641% | 0.4914% |
| `Cl.O=C(NC1CCCC1)C1(Cc2cc(C3CCOC3)no2)CCNCC1` (stereo not given) | - | 8.786% | - | - |
| `COCCN1C(=O)CC(N2CCN(c3ccc(F)cc3)CC2)C1=O` (stereo not given) | 8.081% | 2.262% | -1.377% | 1.215% |
| `CC(C)Oc1cccc(C(=O)C2CCCN(C(=O)c3ccnn3C)C2)c1` (stereo not given) | -17.04% | -1.122% | 3.298% | 16.21% |
| `CCC(CC)CN1CCC2(CCCN(c3ncccn3)C2)C1` (stereo not given) | 15.52% | 7.557% | -3.374% | 0.7614% |
| `COc1cccc(-c2n[nH]c3c2CN(C(=O)c2oc(C)cc2C)CC3)c1` | -1.287% | 17.74% | -2.624% | 17.57% |
| `N#Cc1cccc(S(=O)(=O)NC(=O)CCOCC(F)(F)F)c1` | -0.5979% | -3.936% | 0.5201% | 10.95% |
| `Cc1cc(Br)c2c(c1)C1(CC(=O)Nc3c1cnn3C(C)C)C(=O)N2` (stereo not given) | -17.66% | -13.65% | 4.552% | 2.273% |
| `CCc1noc(C(C)N2CCN(CC(C)C)CC2)n1` (stereo not given) | -2.754% | -5.284% | 0.7747% | 0.5222% |
| `O=C(OCc1cccc(F)c1)c1cccc(C(=O)N2CCCC2)n1` | -11.22% | 3.712% | -5.657% | 0.8485% |
| `CCS(=O)(=O)N1CCN(C(=O)c2cnc3[nH]nc(C)c3c2)CC1` | -0.5406% | -8.634% | -3.595% | 3.781% |
| `COC(=O)CCN(CC1CCCO1)C(=O)CCc1ccc(OC)cc1` (stereo not given) | -4.5% | 0.9029% | -1.845% | 1.914% |
| `[H][C@]1([C@H](O)c2ccc(NC(=O)c3cccc(C#N)c3)cc2)COCC(=O)N1` | - | -2.652% | - | - |
| `O=S(=O)(N1CCCC1)N1CCN(CC2CCCO2)CC1` (stereo not given) | -4.562% | 12.86% | 1.052% | 3.125% |
| `Cc1cnn(C2CN(C(C)c3nc(-c4ccccc4)no3)C2)c1` (stereo not given) | -5.438% | -1.189% | -2.468% | 2.903% |
| `CC/N=c1/c(NC(=O)C2CC2)c(O)oc2ccccc12` | 8.184% | 4.959% | -2.724% | 1.493% |
| `C[S+]([O-])c1nncn1CC(=O)c1cccc(Cl)c1` (stereo not given) | -4.95% | -0.3721% | 3.521% | 9.692% |
| `CC(O)CN1CCN(C(=O)c2ccc(Cn3cccc3)cc2)CC1` (stereo not given) | 14.88% | -0.9765% | -4.46% | -1.068% |
| `Cc1ccc(CN2CC[C@@H]3OCCN(Cc4ccncc4)[C@H]3CC2)s1` | 14.32% | - | - | 0.2439% |
| `O=C(O)C(F)(F)F.[H][C@]12CCC[C@@H](CNc3nccn3C)[C@@]1([H])CN(Cc1nccs1)C2` | - | 2.967% | - | - |
| `COCCCn1ccc(NC(=O)NCCn2ccnc2)n1` | 1.169% | -6.768% | -1.941% | 11.21% |
| `COc1ccc(CN2CCC3(CCCN(c4ncc(F)cn4)C3)C2)cc1.O=C(O)C(F)(F)F` (stereo not given) | - | 14.53% | - | - |
| `NC(=O)c1cccc(OCC(=O)N2CCCC(n3ccnc3)C2)c1` (stereo not given) | -5.476% | -4.378% | -5.54% | 17.32% |
| `CCc1nc(CN(C)C2CCN(Cc3ccc(C#N)cc3F)C2)no1` (stereo not given) | 5.554% | 3.619% | -6.338% | -1.305% |
| `Cc1cnc(NCC(C)(C)N2CCN(C)CC2)nc1` | -2.543% | -15.25% | -2.006% | 2.475% |
| `O=C(CNc1cccc(S(=O)(=O)C(F)F)c1)Nc1ccccc1` | 4.045% | 1.021% | -6.887% | 1.2% |
| `CN(C)CCN1CCOCC2(C1)CN(Cc1ccsc1)CCO2` (stereo not given) | 8.016% | - | 0.8811% | 0.5181% |
| `Cc1ccc(-c2nnc(CNC(=O)c3cccnc3)o2)cn1` | 18.92% | - | -1.427% | -15.91% |
| `Cc1cc(C)n(CCC(=O)N2CCCCC2c2nccs2)n1` (stereo not given) | -5.172% | - | -3.215% | -4.01% |
| `CCc1n[nH]c(C2CN(C(=O)CCOCC(F)(F)F)CCO2)n1` (stereo not given) | 0.9705% | -1.887% | -3.577% | -0.1211% |
| `Cn1cc(C(=O)CC2CCCN2C(=O)c2ccncc2F)cn1` (stereo not given) | -5.502% | 7.29% | -9.418% | -3.354% |
| `CCN(CC(=O)NC1(C)CCS(=O)(=O)C1)Cc1ccc(OC)c(F)c1` (stereo not given) | -19.22% | -17.36% | -2.563% | 2.089% |
| `[H][C@@]12CCN(c3ncccn3)[C@]1([H])CC[C@H](c1nc(C)no1)O2` | - | 9.726% | - | - |
| `O=C(O)c1cn(CC2CCCN(c3cnc4ccccc4n3)C2)nn1` (stereo not given) | 5.124% | -4.98% | 4.19% | 1.408% |
| `Cc1nccc(N2CCC(=O)N(Cc3ccc(F)cc3)C(C(C)C)C2)n1` (stereo not given) | -5.689% | -10.41% | -5.687% | -0.4219% |
| `Nc1nnc(C2CC(=O)N(c3ccccc3)C2)s1` (stereo not given) | -16.58% | -5.4% | 1.655% | 5.102% |
| `COCCC(=O)NCCc1nc2cc(-c3ccc(OC)cc3)ncn2n1` | -11.19% | 5.919% | 0.4569% | -1.695% |
| `O=C(O)C(F)(F)F.O=C(O)C(F)(F)F.c1cc(CNCC2OCCc3cn(CC4CC4)nc32)cs1` (stereo not given) | - | 2.37% | - | - |
| `Cc1ccn(-c2ccccc2NCc2ncc[nH]2)n1` | -4.974% | -3.503% | 5.203% | -0.6397% |
| `Cc1nc(C)c(C(=O)N2CCc3ccc(F)cc3C2C)o1` (stereo not given) | -6.213% | -3.564% | -1.941% | -12.53% |
| `NS(=O)(=O)CC1CCCN1CCOc1ccccc1F` (stereo not given) | -3.453% | -20.75% | 1.356% | 0.1266% |
| `Cc1ccc(CN2CC3(CCN(C(=O)c4cscn4)C3)C2)o1` | -12.32% | - | 5.255% | 5.549% |

The last 5 entries again:

For O=C(O)C(F)(F)F.O=C(O)C(F)(F)F.c1cc(CNCC2OCCc3cn(CC4CC4)nc32)cs1 (stereo not given) the result was Toxoplasma: 2.37%.
For Cc1ccn(-c2ccccc2NCc2ncc[nH]2)n1 the result was ClpP1P2: -4.974%; Toxoplasma: -3.503%; MtTrpRS: 5.203%; CoaBC: -0.6397%.
For Cc1nc(C)c(C(=O)N2CCc3ccc(F)cc3C2C)o1 (stereo not given) the result was ClpP1P2: -6.213%; Toxoplasma: -3.564%; MtTrpRS: -1.941%; CoaBC: -12.53%.
For NS(=O)(=O)CC1CCCN1CCOc1ccccc1F (stereo not given) the result was ClpP1P2: -3.453%; Toxoplasma: -20.75%; MtTrpRS: 1.356%; CoaBC: 0.1266%.
For Cc1ccc(CN2CC3(CCN(C(=O)c4cscn4)C3)C2)o1 the result was ClpP1P2: -12.32%; MtTrpRS: 5.255%; CoaBC: 5.549%.